Laboratory results reported in the supplement of paper PMC12823440, “Inhibitors supercharge kinase turnover through native proteolytic circuits” (Nature, 2025).
Counter-ions that a name gives are not always drawn. This is one part of the list. Hit calls seldom repeat between salt and free forms of one compound.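 Kinases were expressed as nanoluciferase fusions in K562 cells and luminescence was read every 4 h between 2 and 18 h as percent of control, DMSO set to 100% and a positive control to 0%. A time point counts as decreased when the signal drops significantly (2 sigma). The hit call is the authors' own, does not follow from the count of time points alone, and its rule is not shown.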

Sequences of proteins named here, by UniProt entry; tags and fusion partners are left off. A change or cut given only in a name is not applied to a line headed by its entry.
UniProt P07949, whole entry, looked up: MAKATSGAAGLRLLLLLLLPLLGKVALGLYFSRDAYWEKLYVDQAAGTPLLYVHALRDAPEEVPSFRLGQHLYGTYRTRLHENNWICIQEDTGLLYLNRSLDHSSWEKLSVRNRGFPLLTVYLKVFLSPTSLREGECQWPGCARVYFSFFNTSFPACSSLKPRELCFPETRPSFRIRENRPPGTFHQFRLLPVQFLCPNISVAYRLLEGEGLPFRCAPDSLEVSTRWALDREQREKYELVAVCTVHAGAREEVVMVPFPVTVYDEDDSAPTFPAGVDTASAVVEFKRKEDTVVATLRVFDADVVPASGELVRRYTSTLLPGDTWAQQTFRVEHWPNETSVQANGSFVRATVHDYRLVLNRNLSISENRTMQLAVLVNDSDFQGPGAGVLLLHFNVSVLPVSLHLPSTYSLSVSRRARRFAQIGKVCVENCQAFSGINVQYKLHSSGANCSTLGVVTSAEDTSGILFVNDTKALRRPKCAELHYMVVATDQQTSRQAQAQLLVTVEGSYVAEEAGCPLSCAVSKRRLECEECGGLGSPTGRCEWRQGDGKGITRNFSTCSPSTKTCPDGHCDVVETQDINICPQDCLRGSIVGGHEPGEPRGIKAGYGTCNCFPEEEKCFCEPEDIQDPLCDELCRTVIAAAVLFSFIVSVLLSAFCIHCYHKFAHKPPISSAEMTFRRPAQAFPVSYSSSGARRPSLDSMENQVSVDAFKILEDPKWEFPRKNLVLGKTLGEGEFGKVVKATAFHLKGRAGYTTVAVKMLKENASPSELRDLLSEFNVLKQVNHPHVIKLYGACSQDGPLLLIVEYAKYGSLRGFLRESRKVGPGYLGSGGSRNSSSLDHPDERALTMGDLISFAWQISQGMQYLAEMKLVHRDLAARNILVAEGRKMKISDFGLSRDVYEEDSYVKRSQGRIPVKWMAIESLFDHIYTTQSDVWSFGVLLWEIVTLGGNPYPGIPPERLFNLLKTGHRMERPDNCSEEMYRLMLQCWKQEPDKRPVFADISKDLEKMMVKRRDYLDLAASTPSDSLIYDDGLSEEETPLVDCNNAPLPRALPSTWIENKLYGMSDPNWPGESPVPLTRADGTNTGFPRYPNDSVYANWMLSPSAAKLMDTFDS
UniProt P07949, whole entry M918T, looked up: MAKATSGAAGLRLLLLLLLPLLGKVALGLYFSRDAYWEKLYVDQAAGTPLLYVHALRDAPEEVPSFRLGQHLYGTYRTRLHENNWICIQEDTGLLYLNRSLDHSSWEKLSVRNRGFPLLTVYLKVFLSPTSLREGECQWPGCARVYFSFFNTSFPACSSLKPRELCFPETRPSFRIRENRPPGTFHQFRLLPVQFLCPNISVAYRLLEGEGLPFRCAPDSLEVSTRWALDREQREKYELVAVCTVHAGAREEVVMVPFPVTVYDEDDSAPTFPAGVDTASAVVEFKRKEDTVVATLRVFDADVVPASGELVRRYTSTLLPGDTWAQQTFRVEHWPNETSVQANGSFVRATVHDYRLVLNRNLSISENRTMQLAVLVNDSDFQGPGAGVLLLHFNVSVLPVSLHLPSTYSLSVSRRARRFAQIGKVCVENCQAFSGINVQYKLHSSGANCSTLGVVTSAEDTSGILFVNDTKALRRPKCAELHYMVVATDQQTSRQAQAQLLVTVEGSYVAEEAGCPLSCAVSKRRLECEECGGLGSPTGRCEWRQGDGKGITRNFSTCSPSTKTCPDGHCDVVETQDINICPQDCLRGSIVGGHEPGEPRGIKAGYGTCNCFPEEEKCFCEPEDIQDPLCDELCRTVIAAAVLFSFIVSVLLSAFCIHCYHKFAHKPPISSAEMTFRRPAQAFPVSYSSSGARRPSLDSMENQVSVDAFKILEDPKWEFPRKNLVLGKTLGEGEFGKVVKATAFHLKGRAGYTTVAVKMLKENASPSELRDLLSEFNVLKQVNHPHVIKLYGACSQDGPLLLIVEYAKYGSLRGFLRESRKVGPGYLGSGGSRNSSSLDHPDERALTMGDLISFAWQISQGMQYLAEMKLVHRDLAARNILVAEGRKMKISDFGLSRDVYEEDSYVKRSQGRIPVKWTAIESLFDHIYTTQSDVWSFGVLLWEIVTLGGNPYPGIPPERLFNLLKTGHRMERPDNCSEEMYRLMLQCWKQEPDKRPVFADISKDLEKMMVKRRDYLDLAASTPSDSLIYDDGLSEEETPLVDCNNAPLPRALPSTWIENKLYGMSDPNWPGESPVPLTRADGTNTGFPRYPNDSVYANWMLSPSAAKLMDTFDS
UniProt Q9BRS2: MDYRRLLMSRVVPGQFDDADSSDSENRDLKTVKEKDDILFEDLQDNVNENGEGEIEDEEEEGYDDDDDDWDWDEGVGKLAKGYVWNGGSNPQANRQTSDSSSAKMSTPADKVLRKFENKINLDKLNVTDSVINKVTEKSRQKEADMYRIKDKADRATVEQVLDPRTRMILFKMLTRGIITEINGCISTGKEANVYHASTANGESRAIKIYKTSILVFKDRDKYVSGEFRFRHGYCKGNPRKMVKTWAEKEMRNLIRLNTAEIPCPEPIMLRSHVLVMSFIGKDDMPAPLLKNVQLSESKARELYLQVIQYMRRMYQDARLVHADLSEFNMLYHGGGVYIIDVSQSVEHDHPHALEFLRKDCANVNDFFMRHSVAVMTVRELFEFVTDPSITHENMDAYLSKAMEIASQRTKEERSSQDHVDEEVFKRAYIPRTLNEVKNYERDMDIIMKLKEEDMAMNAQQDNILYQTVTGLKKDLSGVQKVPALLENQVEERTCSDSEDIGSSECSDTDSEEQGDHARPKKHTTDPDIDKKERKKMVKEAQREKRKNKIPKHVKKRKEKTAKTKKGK
UniProt Q13546: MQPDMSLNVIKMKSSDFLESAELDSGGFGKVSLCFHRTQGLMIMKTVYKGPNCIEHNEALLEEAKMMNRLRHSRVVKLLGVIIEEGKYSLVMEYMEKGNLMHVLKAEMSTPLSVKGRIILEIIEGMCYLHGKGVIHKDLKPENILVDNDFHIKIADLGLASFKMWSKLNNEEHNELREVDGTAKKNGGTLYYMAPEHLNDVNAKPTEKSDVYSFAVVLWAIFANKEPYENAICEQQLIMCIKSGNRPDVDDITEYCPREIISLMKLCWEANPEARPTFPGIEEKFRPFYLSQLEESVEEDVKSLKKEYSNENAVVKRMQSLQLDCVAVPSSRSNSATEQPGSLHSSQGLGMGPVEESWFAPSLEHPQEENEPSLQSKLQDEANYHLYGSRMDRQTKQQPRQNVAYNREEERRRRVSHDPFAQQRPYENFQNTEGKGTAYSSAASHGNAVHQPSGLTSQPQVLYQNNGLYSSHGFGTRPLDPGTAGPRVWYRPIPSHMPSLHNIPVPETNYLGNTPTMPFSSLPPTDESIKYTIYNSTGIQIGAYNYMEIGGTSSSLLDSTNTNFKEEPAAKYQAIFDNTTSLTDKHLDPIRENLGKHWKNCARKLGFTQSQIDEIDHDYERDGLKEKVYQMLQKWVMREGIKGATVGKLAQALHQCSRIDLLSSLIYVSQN
UniProt Q01974, whole entry: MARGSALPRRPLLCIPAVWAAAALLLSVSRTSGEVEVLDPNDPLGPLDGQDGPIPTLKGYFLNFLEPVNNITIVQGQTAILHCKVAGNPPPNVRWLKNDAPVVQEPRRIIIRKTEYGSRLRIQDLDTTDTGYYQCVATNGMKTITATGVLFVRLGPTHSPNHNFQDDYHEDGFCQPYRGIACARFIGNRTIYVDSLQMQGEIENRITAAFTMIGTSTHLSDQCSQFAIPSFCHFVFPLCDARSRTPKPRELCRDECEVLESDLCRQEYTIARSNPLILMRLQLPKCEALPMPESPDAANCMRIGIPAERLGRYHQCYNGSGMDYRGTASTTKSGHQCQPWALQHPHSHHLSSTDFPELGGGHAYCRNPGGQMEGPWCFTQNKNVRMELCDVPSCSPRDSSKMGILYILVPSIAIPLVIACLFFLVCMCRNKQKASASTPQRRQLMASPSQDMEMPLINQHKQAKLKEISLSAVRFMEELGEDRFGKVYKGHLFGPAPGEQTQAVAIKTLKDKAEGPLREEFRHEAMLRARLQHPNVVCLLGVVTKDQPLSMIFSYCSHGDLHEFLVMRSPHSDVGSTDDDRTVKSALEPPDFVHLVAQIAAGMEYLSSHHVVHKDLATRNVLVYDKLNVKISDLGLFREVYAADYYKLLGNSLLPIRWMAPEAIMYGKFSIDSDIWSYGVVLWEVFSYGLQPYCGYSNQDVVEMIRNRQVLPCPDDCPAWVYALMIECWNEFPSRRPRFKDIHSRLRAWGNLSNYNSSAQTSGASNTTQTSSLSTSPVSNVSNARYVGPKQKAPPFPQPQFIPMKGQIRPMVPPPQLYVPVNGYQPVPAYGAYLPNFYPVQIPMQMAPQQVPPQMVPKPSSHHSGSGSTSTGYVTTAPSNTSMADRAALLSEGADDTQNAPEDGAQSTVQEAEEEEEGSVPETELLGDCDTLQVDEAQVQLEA
UniProt Q15418, whole entry: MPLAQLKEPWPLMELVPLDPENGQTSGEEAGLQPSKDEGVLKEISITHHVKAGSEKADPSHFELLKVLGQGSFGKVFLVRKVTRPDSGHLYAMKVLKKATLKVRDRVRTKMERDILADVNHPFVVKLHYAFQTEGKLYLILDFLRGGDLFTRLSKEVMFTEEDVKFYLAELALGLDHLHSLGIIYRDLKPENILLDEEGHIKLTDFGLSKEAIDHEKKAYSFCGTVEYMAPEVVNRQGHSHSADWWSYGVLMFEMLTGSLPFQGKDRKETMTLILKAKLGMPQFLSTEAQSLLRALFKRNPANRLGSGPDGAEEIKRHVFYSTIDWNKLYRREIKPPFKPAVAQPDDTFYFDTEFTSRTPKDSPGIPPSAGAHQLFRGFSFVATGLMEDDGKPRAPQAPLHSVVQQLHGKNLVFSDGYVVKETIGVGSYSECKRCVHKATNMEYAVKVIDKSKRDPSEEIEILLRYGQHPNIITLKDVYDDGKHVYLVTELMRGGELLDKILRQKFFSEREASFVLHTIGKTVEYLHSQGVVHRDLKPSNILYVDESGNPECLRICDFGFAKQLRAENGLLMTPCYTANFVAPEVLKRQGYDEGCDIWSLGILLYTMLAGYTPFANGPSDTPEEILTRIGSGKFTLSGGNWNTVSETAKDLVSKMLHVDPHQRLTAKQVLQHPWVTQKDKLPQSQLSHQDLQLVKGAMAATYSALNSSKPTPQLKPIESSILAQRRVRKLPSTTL
UniProt Q9NYA1, whole entry: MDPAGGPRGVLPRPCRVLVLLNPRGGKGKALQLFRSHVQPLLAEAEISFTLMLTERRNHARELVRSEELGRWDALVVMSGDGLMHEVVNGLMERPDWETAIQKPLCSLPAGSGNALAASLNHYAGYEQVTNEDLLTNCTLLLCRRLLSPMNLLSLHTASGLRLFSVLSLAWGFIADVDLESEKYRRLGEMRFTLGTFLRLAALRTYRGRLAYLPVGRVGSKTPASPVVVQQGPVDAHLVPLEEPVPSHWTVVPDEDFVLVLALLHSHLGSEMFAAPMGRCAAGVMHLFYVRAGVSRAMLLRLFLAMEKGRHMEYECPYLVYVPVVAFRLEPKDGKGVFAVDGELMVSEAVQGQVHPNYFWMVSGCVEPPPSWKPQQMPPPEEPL
UniProt Q9Y6E0: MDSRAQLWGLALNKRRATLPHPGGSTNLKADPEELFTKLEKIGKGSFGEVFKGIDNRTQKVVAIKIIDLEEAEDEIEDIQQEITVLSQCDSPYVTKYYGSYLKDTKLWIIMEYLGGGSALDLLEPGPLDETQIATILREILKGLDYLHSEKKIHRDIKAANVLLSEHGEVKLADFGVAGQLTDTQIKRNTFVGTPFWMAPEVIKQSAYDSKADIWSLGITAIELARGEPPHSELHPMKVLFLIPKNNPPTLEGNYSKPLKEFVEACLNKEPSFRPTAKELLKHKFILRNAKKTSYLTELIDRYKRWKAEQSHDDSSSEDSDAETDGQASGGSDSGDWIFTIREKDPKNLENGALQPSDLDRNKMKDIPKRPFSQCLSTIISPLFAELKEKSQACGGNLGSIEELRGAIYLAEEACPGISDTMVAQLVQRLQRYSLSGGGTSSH

Experiments:
Assay in all cases: kinase-Nluc reporter destabilization hit call (1 = scored as downregulated) (binary); higher = compound decreases kinase abundance
Conditions in all cases: K562; 2-18 h
[1] = target: RET (UniProt P07949)
[2] = target: RET_M918T (clone: RET_mut) (UniProt P07949)
[3] = target: RIOK1 (UniProt Q9BRS2)
[4] = target: RIPK1 (UniProt Q13546)
[5] = target: RIPK2 (UniProt O43353)
[6] = target: ROR2 (UniProt Q01974)
[7] = target: RPS6KA1 (UniProt Q15418)
[8] = target: SPHK1 (UniProt Q9NYA1)
[9] = target: SRC (UniProt P12931)
[10] = target: STK24 (UniProt Q9Y6E0)

| SMILES | kinase-Nluc reporter destabilization hit call [1] | kinase-Nluc reporter destabilization hit call [2] | kinase-Nluc reporter destabilization hit call [3] | kinase-Nluc reporter destabilization hit call [4] | kinase-Nluc reporter destabilization hit call [5] | kinase-Nluc reporter destabilization hit call [6] | kinase-Nluc reporter destabilization hit call [7] | kinase-Nluc reporter destabilization hit call [8] | kinase-Nluc reporter destabilization hit call [9] | kinase-Nluc reporter destabilization hit call [10] |
| --- | --- | --- | --- | --- | --- | --- | --- | --- | --- | --- |
| C=CC(=O)N1CCC(c2ccc(C(N)=O)c(-c3ccc(Oc4ccccc4)cc3)n2)CC1 [Orelabrutinib] (2.5 µM) | inactive: 0 | inactive: 0 | inactive: 0 | inactive: 0 | inactive: 0 | inactive: 0 | inactive: 0 | inactive: 0 | inactive: 0 | inactive: 0 |
| COc1cc2nc(-c3cc(F)ccc3O)nc(N[C@@H]3CNC[C@H]3C(C)(C)O)c2cc1OC (2.5 µM) | inactive: 0 | inactive: 0 | inactive: 0 | inactive: 0 | inactive: 0 | inactive: 0 | inactive: 0 | inactive: 0 | inactive: 0 | inactive: 0 |
| Cn1cc(C2=C(c3ccc(Cl)cc3Cl)C(=O)NC2=O)c2ccccc21 (10 µM) | inactive: 0 | inactive: 0 | inactive: 0 | inactive: 0 | inactive: 0 | inactive: 0 | inactive: 0 | inactive: 0 | inactive: 0 | inactive: 0 |
| C=CC(=O)Nc1cc(Nc2nccc(-c3cn(C)c4ccccc34)n2)c(OCC(F)(F)F)nc1N(C)CCNC [AST5902  (trimesylate)] (2.5 µM) | inactive: 0 | inactive: 0 | inactive: 0 | inactive: 0 | inactive: 0 | inactive: 0 | inactive: 0 | inactive: 0 | inactive: 0 | inactive: 0 |
| CN1CCC(Nc2nc(Nc3ccc(Oc4ccccc4)cc3)c3c(=O)[nH]cc(Br)c3n2)CC1 (2.5 µM) | inactive: 0 | inactive: 0 | inactive: 0 | inactive: 0 | inactive: 0 | inactive: 0 | inactive: 0 | inactive: 0 | inactive: 0 | inactive: 0 |
| Oc1ccc(-c2cnc3ccc(NCc4ccco4)nn23)cc1 [IRAK inhibitor 2] (2.5 µM) | inactive: 0 | inactive: 0 | inactive: 0 | inactive: 0 | inactive: 0 | inactive: 0 | inactive: 0 | inactive: 0 | inactive: 0 | inactive: 0 |
| NC(=O)c1c(NC(=O)C2CC2)sc2c1CCCC2 (10 µM) | inactive: 0 | inactive: 0 | inactive: 0 | inactive: 0 | inactive: 0 | inactive: 0 | inactive: 0 | inactive: 0 | inactive: 0 | inactive: 0 |
| CC(C)n1cnc2c(Nc3cccc(Cl)c3)nc(N[C@H]3CCCC[C@@H]3N)nc21 (2.5 µM) | inactive: 0 | inactive: 0 | inactive: 0 | inactive: 0 | inactive: 0 | inactive: 0 | inactive: 0 | inactive: 0 | inactive: 0 | inactive: 0 |
| N=C(NC(=N)N1CCCC1)Nc1ccc(OC(F)(F)F)cc1 (10 µM) | inactive: 0 | inactive: 0 | inactive: 0 | inactive: 0 | inactive: 0 | inactive: 0 | inactive: 0 | inactive: 0 | inactive: 0 | inactive: 0 |
| Cc1cccc(CC(=O)N2CCc3c2ccc(-c2cn(C)c4ncnc(N)c24)c3F)n1 (10 µM) | inactive: 0 | inactive: 0 | inactive: 0 | inactive: 0 | inactive: 0 | inactive: 0 | inactive: 0 | active: 1 | inactive: 0 | inactive: 0 |
| CN1CCN(c2ccc(-n3cc(-c4ccncc4OCC4CCNCC4)cn3)cc2)CC1 [MELK-8a (hydrochloride)] (10 µM) | inactive: 0 | inactive: 0 | inactive: 0 | inactive: 0 | inactive: 0 | inactive: 0 | inactive: 0 | inactive: 0 | inactive: 0 | inactive: 0 |
| C[C@@H]1COC(Nc2ccc3ncnc(Nc4ccc(OCc5nccs5)c(Cl)c4)c3c2)=N1 [Varlitinib] (10 µM) | inactive: 0 | inactive: 0 | inactive: 0 | inactive: 0 | inactive: 0 | inactive: 0 | inactive: 0 | inactive: 0 | inactive: 0 | inactive: 0 |
| Cc1cnc(Nc2ccc(F)cc2Cl)nc1-c1c[nH]c(C(=O)N[C@H](CO)c2cccc(Cl)c2)c1 (10 µM) | inactive: 0 | inactive: 0 | inactive: 0 | inactive: 0 | inactive: 0 | inactive: 0 | inactive: 0 | inactive: 0 | inactive: 0 | inactive: 0 |
| CNC(=O)CN1CCC(Oc2cc3c(Nc4cccc(Cl)c4F)ncnc3cc2OC)CC1 [Sapitinib] (10 µM) | inactive: 0 | inactive: 0 | inactive: 0 | inactive: 0 | inactive: 0 | inactive: 0 | inactive: 0 | inactive: 0 | inactive: 0 | inactive: 0 |
| CCOC(=O)c1c(C)[nH]c(C=C2C(=O)Nc3ccccc32)c1C (10 µM) | inactive: 0 | inactive: 0 | inactive: 0 | inactive: 0 | inactive: 0 | inactive: 0 | inactive: 0 | inactive: 0 | inactive: 0 | inactive: 0 |
| Cc1nc2c(NCc3cccc(S(C)(=O)=O)c3)nccn2c1-c1ccc(O)c(F)c1 (10 µM) | inactive: 0 | inactive: 0 | inactive: 0 | inactive: 0 | inactive: 0 | inactive: 0 | inactive: 0 | inactive: 0 | inactive: 0 | inactive: 0 |
| COc1ccc(Br)c(C=O)c1O [6-Bromo-2-hydroxy-3-methoxybenzaldehyde] (10 µM) | inactive: 0 | inactive: 0 | inactive: 0 | inactive: 0 | inactive: 0 | inactive: 0 | inactive: 0 | inactive: 0 | inactive: 0 | inactive: 0 |
| C[C@@H](NC(=O)c1ncnc(N)c1Cl)c1ncc(C(=O)Nc2cc(C(F)(F)F)c(Cl)cn2)s1 (2.5 µM) | inactive: 0 | inactive: 0 | inactive: 0 | inactive: 0 | inactive: 0 | inactive: 0 | inactive: 0 | inactive: 0 | inactive: 0 | inactive: 0 |
| COc1cc2nc(NC3CC3)nc(NC3CCN(C(C)C)CC3)c2cc1OC (10 µM) | inactive: 0 | inactive: 0 | inactive: 0 | inactive: 0 | inactive: 0 | inactive: 0 | inactive: 0 | inactive: 0 | inactive: 0 | inactive: 0 |
| CCc1cc(Nc2nccc(-c3c(-c4ccc(OC)c(C(=O)Nc5c(F)cccc5F)c4)nc4ccccn34)n2)c(OC)cc1N1CCC(N2CCN(S(C)(=O)=O)CC2)CC1 (2.5 µM) | inactive: 0 | inactive: 0 | inactive: 0 | inactive: 0 | inactive: 0 | inactive: 0 | inactive: 0 | inactive: 0 | inactive: 0 | inactive: 0 |
| Nc1ccc(C(=O)Nc2cccc(-c3nc(N4CCOCC4)c4oc5ncccc5c4n3)c2)cn1 (10 µM) | inactive: 0 | inactive: 0 | inactive: 0 | inactive: 0 | inactive: 0 | inactive: 0 | inactive: 0 | inactive: 0 | inactive: 0 | inactive: 0 |
| CCCCC(=O)OCC(=O)[C@]1(O)Cc2c(O)c3c(c(O)c2[C@@H](O[C@H]2C[C@H](NC(=O)C(F)(F)F)[C@H](O)[C@H](C)O2)C1)C(=O)c1c(OC)cccc1C3=O [Valrubicin] (10 µM) | inactive: 0 | inactive: 0 | inactive: 0 | inactive: 0 | inactive: 0 | inactive: 0 | inactive: 0 | inactive: 0 | inactive: 0 | inactive: 0 |
| NC(=O)c1ccccc1Nc1ccnc(Nc2cccc(O)c2)n1 (10 µM) | inactive: 0 | inactive: 0 | inactive: 0 | inactive: 0 | inactive: 0 | inactive: 0 | inactive: 0 | inactive: 0 | inactive: 0 | inactive: 0 |
| NC(=O)c1cnc(N[C@@H]2CCCC[C@@H]2N)nc1Nc1cccc(-n2nccn2)c1 (2.5 µM) | inactive: 0 | inactive: 0 | inactive: 0 | inactive: 0 | inactive: 0 | inactive: 0 | inactive: 0 | inactive: 0 | inactive: 0 | inactive: 0 |
| CC(C)(Oc1ccc(Cl)cc1)C(=O)Nc1ccc(OCc2ccc(C#N)cc2)cc1 [AMPK activator 4] (10 µM) | inactive: 0 | inactive: 0 | inactive: 0 | inactive: 0 | inactive: 0 | inactive: 0 | inactive: 0 | inactive: 0 | inactive: 0 | inactive: 0 |
| CC(=O)O/N=C1/C(c2c(O)[nH]c3cc(Br)ccc23)=Nc2ccccc21 [BIO-acetoxime] (10 µM) | inactive: 0 | inactive: 0 | inactive: 0 | inactive: 0 | inactive: 0 | inactive: 0 | inactive: 0 | inactive: 0 | inactive: 0 | inactive: 0 |
| Fc1ccc(Cl)cc1-c1nc(Nc2ccncc2)c2nccnc2n1 (10 µM) | inactive: 0 | inactive: 0 | inactive: 0 | inactive: 0 | inactive: 0 | inactive: 0 | inactive: 0 | inactive: 0 | inactive: 0 | inactive: 0 |
| Cc1ccc(C2CC(=O)NC(SCC(=O)Nc3nccs3)=C2C#N)cc1 (stereo not given) [Necrostatin-34] (10 µM) | inactive: 0 | inactive: 0 | inactive: 0 | inactive: 0 | inactive: 0 | inactive: 0 | inactive: 0 | inactive: 0 | inactive: 0 | inactive: 0 |
| Cc1nn(CC(F)(F)F)cc1Nc1ncc(Br)c(NCc2ccc(S(N)(=O)=O)cc2)n1 (10 µM) | inactive: 0 | inactive: 0 | inactive: 0 | inactive: 0 | inactive: 0 | inactive: 0 | inactive: 0 | inactive: 0 | inactive: 0 | inactive: 0 |

Rewritten as tab-separated lines: part of the list above
SMILES	kinase-Nluc reporter destabilization hit call [1]	kinase-Nluc reporter destabilization hit call [2]	kinase-Nluc reporter destabilization hit call [3]	kinase-Nluc reporter destabilization hit call [4]	kinase-Nluc reporter destabilization hit call [5]	kinase-Nluc reporter destabilization hit call [6]	kinase-Nluc reporter destabilization hit call [7]	kinase-Nluc reporter destabilization hit call [8]	kinase-Nluc reporter destabilization hit call [9]	kinase-Nluc reporter destabilization hit call [10]
NC(=O)c1cnc(N[C@@H]2CCCC[C@@H]2N)nc1Nc1cccc(-n2nccn2)c1 (2.5 µM)	inactive: 0	inactive: 0	inactive: 0	inactive: 0	inactive: 0	inactive: 0	inactive: 0	inactive: 0	inactive: 0	inactive: 0
CC(C)(Oc1ccc(Cl)cc1)C(=O)Nc1ccc(OCc2ccc(C#N)cc2)cc1 [AMPK activator 4] (10 µM)	inactive: 0	inactive: 0	inactive: 0	inactive: 0	inactive: 0	inactive: 0	inactive: 0	inactive: 0	inactive: 0	inactive: 0
